In paper PMC12561473:
Results are given in words; binding and its absence hold for the method and conditions named. Binding seen in cells or lysates may run through a third protein. Some binding calls cover weakened binding; strength is not graded here. For some assays here: Where a sequence is shown, tags or fusion partners need not be part of it.

Protein sequences, listed by entry. Tags and fused reporters are not part of them.
UniProt Q99873: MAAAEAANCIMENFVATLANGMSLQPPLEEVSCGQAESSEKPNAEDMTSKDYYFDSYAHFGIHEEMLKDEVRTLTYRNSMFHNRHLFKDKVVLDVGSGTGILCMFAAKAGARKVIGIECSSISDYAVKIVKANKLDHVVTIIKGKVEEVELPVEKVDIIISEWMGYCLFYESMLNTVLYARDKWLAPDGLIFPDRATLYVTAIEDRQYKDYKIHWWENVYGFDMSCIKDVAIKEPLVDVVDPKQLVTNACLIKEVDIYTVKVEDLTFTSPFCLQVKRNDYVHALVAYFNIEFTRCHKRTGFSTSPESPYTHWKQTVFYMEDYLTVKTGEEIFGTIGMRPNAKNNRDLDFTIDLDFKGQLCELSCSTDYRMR

T1: GFP-WT-ATG4B (UniProt Q9Y4P1)
T1 sequence: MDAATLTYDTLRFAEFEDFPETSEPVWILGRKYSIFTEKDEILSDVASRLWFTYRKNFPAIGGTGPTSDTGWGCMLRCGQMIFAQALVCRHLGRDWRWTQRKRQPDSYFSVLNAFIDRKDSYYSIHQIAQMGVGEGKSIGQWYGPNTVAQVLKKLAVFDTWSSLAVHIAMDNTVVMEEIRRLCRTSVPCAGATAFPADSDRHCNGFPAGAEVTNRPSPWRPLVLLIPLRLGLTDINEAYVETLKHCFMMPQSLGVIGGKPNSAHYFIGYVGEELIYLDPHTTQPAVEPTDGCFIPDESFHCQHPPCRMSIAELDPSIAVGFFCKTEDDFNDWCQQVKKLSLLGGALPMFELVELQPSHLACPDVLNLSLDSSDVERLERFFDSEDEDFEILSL


Assays:
[1] = target: T1, GFP-WT-ATG4B; experiment: co-IP; GFP-tagged ATG4B proteins precipitated with GFP-Trap beads from cell lysates in NP-40 buffer (50 mM Tris-HCl pH 7.4, 150 mM NaCl, 1% NP-40, 1 mM EDTA), overnight at 4 °C; blot for PRMT1; GFP-WT-ATG4B cells with or without starvation for 4 h
[2] = target: GST-PRMT1-GFP (UniProt Q99873); experiment: pull-down; in vitro GST pull-down; purified GST-PRMT1-GFP as bait, ATG4B from cell lysates; blot for ATG4B; only the target purified

Row | binding [1] | binding [2] | Molecule
1 | binds |  | PRMT1 (endogenous) (from UniProt Q99873 1-371)
2 |  | binds | ATG4B from cell lysates (protein, UniProt Q9Y4P1 1-393) MDAATLTYDTLRFAEFEDFPETSEPVWILGRKYSIFTEKDEILSDVASRLWFTYRKNFPAIGGTGPTSDTGWGCMLRCGQMIFAQALVCRHLGRDWRWTQRKRQPDSYFSVLNAFIDRKDSYYSIHQIAQMGVGEGKSIGQWYGPNTVAQVLKKLAVFDTWSSLAVHIAMDNTVVMEEIRRLCRTSVPCAGATAFPADSDRHCNGFPAGAEVTNRPSPWRPLVLLIPLRLGLTDINEAYVETLKHCFMMPQSLGVIGGKPNSAHYFIGYVGEELIYLDPHTTQPAVEPTDGCFIPDESFHCQHPPCRMSIAELDPSIAVGFFCKTEDDFNDWCQQVKKLSLLGGALPMFELVELQPSHLACPDVLNLSLDSSDVERLERFFDSEDEDFEILSL
